This note sets out measurements from PubChem BioAssay AID328 (DTP/NCI, 2004).

The list shows only some results of the screen, not a fair sample: it gathers some chemical classes. Other doses and runs of a compound may be missing. T/C gives the treated animals as a percentage of the vehicle group. For survival time, the PubChem record calls one and a half times the control and up active, and a quarter to a half above the control has no call in these data; cut-offs in other NCI protocols can differ. Some entries show no survivor count and are marked so; the dose need not have been tolerated. Schedule codes are those of the source, read here as Q, the interval in days (D) or hours (H), X, the number of doses. Some doses were run more than once; the values are given in rising order. Some complexes appear as separate parts, the way the source draws them; their charges need not add up.

The test system of the assay is BDF1 mice, P388 leukemia ip, median survival T/C. The assay is described as follows: NCI In Vivo Anticancer Drug Screen. Data for tumor model P388 Leukemia (intraperitoneal) in B6D2F1 (BDF1) mice. Conditions: T/C endpoint: median survival time, higher T/C = longer survival. As to the method: The antitumor activity of compounds was measured in mice bearing transplantable tumors. Survival or tumor size were measured and the results are expressed as the measurement made in the treated group (T) divided by the measurement made in the vehicle treated control group (C). The tumor model used in this assay is P388 Leukemia (intraperitoneal) in B6D2F1 (BDF1) mice

Where [1] appears, read: dose: 1.56 mg/kg/injection, schedule: Q01DX009 (ip), vehicle: water.
Setting [2] is: dose: 6.25 mg/kg/injection, schedule: Q01DX009 (ip), vehicle: water.
The mark [3] stands for this setting: dose: 12.5 mg/kg/injection, schedule: Q01DX009 (ip), vehicle: water.

As for `CN(CCCl)CCCl.CN(CCCl)CCCl.[Cl][Cu][Cl]`, the T/C under setting [1] was 104 % of control [survivor count not shown]; the T/C (dose: 3.12 mg/kg/injection, schedule: Q01DX009 (ip), vehicle: water) is 104 [survivor count not shown] and 110 % of control [survivor count not shown]; the T/C under setting [2] was 118 [survivor count not shown] and 124 % of control [survivor count not shown]; the T/C under setting [3] is 127 [survivor count not shown] and 146 % of control [survivor count not shown]; the T/C (dose: 20.0 mg/kg/injection, schedule: Q01DX009 (ip), vehicle: water) is 128 % of control [survivor count not shown].

`CN(CCCl)CCCl.CN(CCCl)CCCl.[Cl][Pt+2][Cl]`: the T/C is, setting by setting: under setting [1], 166 % of control [survivor count not shown]; (dose: 3.13 mg/kg/injection, schedule: Q01DX009 (ip), vehicle: water) 185 % of control [survivor count not shown]; under setting [2], 201 % of control [survivor count not shown]; under setting [3], 245 % of control [survivor count not shown]; (dose: 25.0 mg/kg/injection, schedule: Q01DX009 (ip), vehicle: water) 245 % of control [survivor count not shown].

For `CN(CCCl)CCCl`, the T/C was 90 % of control [survivor count not shown] (dose: 0.06 mg/kg/injection, schedule: Q01DX010 (ip), vehicle: saline); 110 % of control [survivor count not shown] (dose: 0.12 mg/kg/injection, schedule: Q01DX010 (ip), vehicle: saline); 200 [survivor count not shown] and 203 % of control [survivor count not shown] (dose: 0.13 mg/kg/injection, schedule: Q01DX010 (ip), vehicle: saline); 115 [survivor count not shown], 200 [survivor count not shown], 300 % of control [survivor count not shown] (dose: 0.25 mg/kg/injection, schedule: Q01DX010 (ip), vehicle: saline); 175 % of control [survivor count not shown] (dose: 0.3 mg/kg/injection, schedule: Q04DX003 (ip), vehicle: saline); 221 % of control [survivor count not shown] (dose: 0.43 mg/kg/injection, schedule: Q04DX003 (ip), vehicle: saline). Also, the T/C by setting is: (dose: 0.5 mg/kg/injection, schedule: Q01DX010 (ip), vehicle: saline) 118 [survivor count not shown], 130 [survivor count not shown], 138 % of control [survivor count not shown]; (dose: 0.6 mg/kg/injection, schedule: Q04DX003 (ip), vehicle: saline) 190 % of control [survivor count not shown]; (dose: 0.72 mg/kg/injection, schedule: Q04DX003 (ip), vehicle: saline) 221 % of control [survivor count not shown]; (dose: 1.2 mg/kg/injection, schedule: Q04DX003 (ip), vehicle: saline) 117 % of control [survivor count not shown]; (dose: 1.25 mg/kg/injection, schedule: Q04DX003 (ip), vehicle: saline) 225 % of control [survivor count not shown]; (dose: 2.5 mg/kg/injection, schedule: Q04DX003 (ip), vehicle: saline) 155 % of control [survivor count not shown]. Moreover, the T/C runs as follows: (dose: 389.0 micrograms/kg/injection, schedule: Q04DX003 (ip), vehicle: saline) 172 % of control [survivor count not shown]; (dose: 648.0 micrograms/kg/injection, schedule: Q04DX003 (ip), vehicle: saline) 127 % of control [survivor count not shown]; (dose: 1080.0 micrograms/kg/injection, schedule: Q04DX003 (ip), vehicle: saline) 200 % of control [survivor count not shown]; (dose: 1800.0 micrograms/kg/injection, schedule: Q04DX003 (ip), vehicle: saline) 227 % of control [survivor count not shown].
